The target of experiment [1] is T1, PP5-FLAG-K430R, non-SUMOylatable mutant (UniProt P53041).
T1 sequence: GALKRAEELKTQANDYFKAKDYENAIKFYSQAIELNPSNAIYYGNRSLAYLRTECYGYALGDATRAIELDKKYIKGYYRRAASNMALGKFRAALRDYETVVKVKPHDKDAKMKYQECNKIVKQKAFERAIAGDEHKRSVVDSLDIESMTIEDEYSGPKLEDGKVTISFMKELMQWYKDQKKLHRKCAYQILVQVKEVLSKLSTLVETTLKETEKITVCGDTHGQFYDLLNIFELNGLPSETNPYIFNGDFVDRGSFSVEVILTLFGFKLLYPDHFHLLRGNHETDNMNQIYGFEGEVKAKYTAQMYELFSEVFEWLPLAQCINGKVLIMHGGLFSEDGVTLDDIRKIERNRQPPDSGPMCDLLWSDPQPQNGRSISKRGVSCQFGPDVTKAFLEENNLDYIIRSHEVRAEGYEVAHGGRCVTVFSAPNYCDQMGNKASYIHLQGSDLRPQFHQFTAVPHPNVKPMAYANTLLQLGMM
The experiment can be described thus: co-IP; sequential double IP from HEK293 cells transfected with PP5-FLAG (WT or K430R) and GR: FLAG IP (IP1), elution with 3x FLAG peptide, second IP (IP2) with GR antibody-conjugated agarose; immunoblot. (Immunoblotting shows a protein as a band on a membrane.)

The chains behind the UniProt entries cited, without tags or fusion partners.
UniProt P04150: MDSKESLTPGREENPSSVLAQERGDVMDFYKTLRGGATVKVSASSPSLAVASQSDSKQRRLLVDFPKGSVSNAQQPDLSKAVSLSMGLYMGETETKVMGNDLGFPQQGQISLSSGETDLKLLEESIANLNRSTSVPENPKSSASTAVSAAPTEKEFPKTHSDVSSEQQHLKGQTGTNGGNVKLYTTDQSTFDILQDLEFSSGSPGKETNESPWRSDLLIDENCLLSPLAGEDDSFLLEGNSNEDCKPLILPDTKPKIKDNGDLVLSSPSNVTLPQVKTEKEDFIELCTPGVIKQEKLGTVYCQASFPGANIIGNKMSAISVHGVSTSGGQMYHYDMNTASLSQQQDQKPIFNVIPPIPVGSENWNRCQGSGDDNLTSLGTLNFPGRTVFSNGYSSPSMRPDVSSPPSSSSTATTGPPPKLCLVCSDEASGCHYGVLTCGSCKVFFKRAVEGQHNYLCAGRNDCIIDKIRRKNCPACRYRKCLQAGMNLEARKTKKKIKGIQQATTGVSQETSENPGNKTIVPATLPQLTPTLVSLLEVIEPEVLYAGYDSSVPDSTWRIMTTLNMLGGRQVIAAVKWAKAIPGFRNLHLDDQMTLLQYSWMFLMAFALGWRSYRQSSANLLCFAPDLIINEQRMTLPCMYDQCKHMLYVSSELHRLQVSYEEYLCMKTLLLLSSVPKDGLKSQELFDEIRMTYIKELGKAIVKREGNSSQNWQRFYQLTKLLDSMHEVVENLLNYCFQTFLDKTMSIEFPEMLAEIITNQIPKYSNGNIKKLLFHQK

Experiment [2] concerns the target T2, serine/threonine protein phosphatase 5 (PP5), wild-type PP5-FLAG (UniProt P53041).
T2 sequence: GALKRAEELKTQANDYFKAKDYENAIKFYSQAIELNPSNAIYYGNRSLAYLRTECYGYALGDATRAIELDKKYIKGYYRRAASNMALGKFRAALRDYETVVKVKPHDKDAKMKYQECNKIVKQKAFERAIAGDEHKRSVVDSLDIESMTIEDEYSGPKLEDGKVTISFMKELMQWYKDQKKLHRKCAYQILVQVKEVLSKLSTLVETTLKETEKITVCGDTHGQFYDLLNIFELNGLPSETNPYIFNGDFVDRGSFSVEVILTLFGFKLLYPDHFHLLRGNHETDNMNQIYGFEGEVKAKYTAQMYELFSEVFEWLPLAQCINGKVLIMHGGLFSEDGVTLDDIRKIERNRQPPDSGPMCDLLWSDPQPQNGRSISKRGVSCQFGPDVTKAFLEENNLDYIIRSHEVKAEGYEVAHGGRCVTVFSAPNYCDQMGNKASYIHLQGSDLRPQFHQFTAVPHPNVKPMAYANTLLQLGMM
The experiment is described as above.

The target of experiment [3] is T1, PP5-FLAG-K430R, non-SUMOylatable mutant. Kind of experiment: co-IP; anti-FLAG agarose IP of PP5-FLAG (WT or mutants) from lysate of transfected HEK293 cells, 2 h at 4 °C; washes in 20 mM Tris-HCl pH 7.4, 100 mM NaCl, 1 mM MgCl2, 0.1% NP40; endogenous partners by immunoblot; some panels with CK1δ-myc co-expressed or 2 µM IC261 for 16 h.
The target in experiment [4] is T3, PP5-FLAG-K430Q (UniProt P53041).
T3 sequence: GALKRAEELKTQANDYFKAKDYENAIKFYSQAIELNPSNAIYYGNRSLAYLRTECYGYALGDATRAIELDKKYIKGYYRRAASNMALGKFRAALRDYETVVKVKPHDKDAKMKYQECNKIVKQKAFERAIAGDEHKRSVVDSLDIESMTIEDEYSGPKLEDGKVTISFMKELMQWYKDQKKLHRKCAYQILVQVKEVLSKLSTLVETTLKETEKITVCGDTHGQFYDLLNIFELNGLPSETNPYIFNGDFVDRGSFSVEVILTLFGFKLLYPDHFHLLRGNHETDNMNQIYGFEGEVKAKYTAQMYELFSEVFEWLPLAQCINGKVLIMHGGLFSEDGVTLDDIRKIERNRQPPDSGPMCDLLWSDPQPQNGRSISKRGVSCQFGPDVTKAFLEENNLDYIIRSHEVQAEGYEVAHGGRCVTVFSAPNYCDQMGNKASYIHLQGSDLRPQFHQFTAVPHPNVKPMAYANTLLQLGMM
The description is as above.

For experiment [5], the target named is T4, PP5-FLAG-K430A (UniProt P53041).
T4 sequence: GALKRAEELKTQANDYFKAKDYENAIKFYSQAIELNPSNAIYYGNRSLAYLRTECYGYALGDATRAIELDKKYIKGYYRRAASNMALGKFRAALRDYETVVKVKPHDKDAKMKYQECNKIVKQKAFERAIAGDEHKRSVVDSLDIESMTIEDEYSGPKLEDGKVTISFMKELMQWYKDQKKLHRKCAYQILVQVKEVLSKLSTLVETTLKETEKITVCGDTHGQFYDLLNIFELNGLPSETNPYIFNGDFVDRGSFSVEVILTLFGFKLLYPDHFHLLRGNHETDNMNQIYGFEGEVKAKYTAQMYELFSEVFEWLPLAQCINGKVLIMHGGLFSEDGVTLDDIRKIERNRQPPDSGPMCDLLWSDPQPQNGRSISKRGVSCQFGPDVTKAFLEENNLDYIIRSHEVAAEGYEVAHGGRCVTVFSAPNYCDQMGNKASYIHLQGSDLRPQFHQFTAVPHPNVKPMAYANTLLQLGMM
Described as above.

The target of experiment [6] is phospho-S211-glucocorticoid receptor, endogenous (human (endogenous in HEK293)) (UniProt P04150). Kind of experiment: co-IP; endogenous IP from HEK293 lysate with anti-GR-pS211 (IgG as control), protein G agarose; immunoblot.

No constants are given. Whether binding was seen depends on the method and setting. Binding seen in cells or lysates may run through a third protein. Some results given as binding are weak or reduced against the parent protein; the word gives no strength. For some assays here: Where a sequence is shown, tags or fusion partners need not be part of it.

The values that follow come from paper PMC11549447.

As to “glucocorticoid receptor (GR), transfected (from UniProt P04150 1-777)”, the binding entry in experiment [1] and in experiment [2] was “binds” in each case.
“phospho-S211-glucocorticoid receptor, endogenous (from UniProt P04150 1-777)”: the binding result in experiment [3] was “binds”.

B1: phospho-S13-Cdc37, endogenous (protein, UniProt Q16543 1-378)
chain: MVDYSVWDHIEVSDDEDETHPNIDTASLFRWRHQARVERMEQFQKEKEELDRGCRECKRKVAECQRKLKELEVAEGGKAELERLQAEAQQLRKEERSWEQKLEEMRKKEKSMPWNVDTLSKDGFSKSMVNTKPEKTEEDSEEVREQKHKTFVEKYEKQIKHFGMLRRWDDSQKYLSDNVHLVCEETANYLVIWCIDLEVEEKCALMEQVAHQTIVMQFILELAKSLKVDPRACFRQFFTKIKTADRQYMEGFNDELEAFKERVRGRAKLRIEKAMKEYEEEERKKRLGPGGLDPVEVYESLPEELQKCFDVKDVQMLQDAISKMDPTDAKYHMQRCIDSGLWVPNSKASEAKEGEEAGPGDPLLEAVPKTGDEKDVSV
modifications: phosphoserine at 13
As to B1, the binding result in experiment [3] was “binds”.

B2: Cdc37, endogenous (protein, UniProt Q16543 1-378)
chain: MVDYSVWDHIEVSDDEDETHPNIDTASLFRWRHQARVERMEQFQKEKEELDRGCRECKRKVAECQRKLKELEVAEGGKAELERLQAEAQQLRKEERSWEQKLEEMRKKEKSMPWNVDTLSKDGFSKSMVNTKPEKTEEDSEEVREQKHKTFVEKYEKQIKHFGMLRRWDDSQKYLSDNVHLVCEETANYLVIWCIDLEVEEKCALMEQVAHQTIVMQFILELAKSLKVDPRACFRQFFTKIKTADRQYMEGFNDELEAFKERVRGRAKLRIEKAMKEYEEEERKKRLGPGGLDPVEVYESLPEELQKCFDVKDVQMLQDAISKMDPTDAKYHMQRCIDSGLWVPNSKASEAKEGEEAGPGDPLLEAVPKTGDEKDVSV
Regarding B2, the binding entry in experiment [4], in experiment [3] and in experiment [5] was “binds” in each case.

B3: PP5, endogenous (enzyme, UniProt P53041 1-499)
chain: MAMAEGERTECAEPPRDEPPADGALKRAEELKTQANDYFKAKDYENAIKFYSQAIELNPSNAIYYGNRSLAYLRTECYGYALGDATRAIELDKKYIKGYYRRAASNMALGKFRAALRDYETVVKVKPHDKDAKMKYQECNKIVKQKAFERAIAGDEHKRSVVDSLDIESMTIEDEYSGPKLEDGKVTISFMKELMQWYKDQKKLHRKCAYQILVQVKEVLSKLSTLVETTLKETEKITVCGDTHGQFYDLLNIFELNGLPSETNPYIFNGDFVDRGSFSVEVILTLFGFKLLYPDHFHLLRGNHETDNMNQIYGFEGEVKAKYTAQMYELFSEVFEWLPLAQCINGKVLIMHGGLFSEDGVTLDDIRKIERNRQPPDSGPMCDLLWSDPQPQNGRSISKRGVSCQFGPDVTKAFLEENNLDYIIRSHEVKAEGYEVAHGGRCVTVFSAPNYCDQMGNKASYIHLQGSDLRPQFHQFTAVPHPNVKPMAYANTLLQLGMM
B3: in experiment [6], the binding result was “binds”.

B4: FNIP1, endogenous (protein, UniProt Q8TF40 1-1166)
chain: MAPTLFQKLFSKRTGLGAPGRDARDPDCGFSWPLPEFDPSQIRLIVYQDCERRGRNVLFDSSVKRRNEDISVSKLGSDAQVKVFGKCCQLKPGGDSSSSLDSSVTSSSDIKDQCLKYQGSRCSSDANMLGEMMFGSVAMSYKGSTLKIHQIRSPPQLMLSKVFTARTGSSICGSLNTLQDSLEFINQDNNTLKADNNTVINGLLGNIGLSQFCSPRRAFSEQGPLRLIRSASFFAVHSNPMDMPGRELNEDRDSGIARSASLSSLLITPFPSPNSSLTRSCASSYQRRWRRSQTTSLENGVFPRWSIEESFNLSDESCGPNPGIVRKKKIAIGVIFSLSKDEDENNKFNEFFFSHFPLFESHMNKLKSAIEQAMKMSRRSADASQRSLAYNRIVDALNEFRTTICNLYTMPRIGEPVWLTMMSGTPEKNHLCYRFMKEFTFLMENASKNQFLPALITAVLTNHLAWVPTVMPNGQPPIKIFLEKHSSQSVDMLAKTHPYNPLWAQLGDLYGAIGSPVRLARTVVVGKRQDMVQRLLYFLTYFIRCSELQETHLLENGEDEAIVMPGTVITTTLEKGEIEESEYVLVTMHRNKSSLLFKESEEIRTPNCNCKYCSHPLLGQNVENISQQEREDIQNSSKELLGISDECQMISPSDCQEENAVDVKQYRDKLRTCFDAKLETVVCTGSVPVDKCALSESGLESTEETWQSEKLLDSDSHTGKAMRSTGMVVEKKPPDKIVPASFSCEAAQTKVTFLIGDSMSPDSDTELRSQAVVDQITRHHTKPLKEERGAIDQHQETKQTTKDQSGESDTQNMVSEEPCELPCWNHSDPESMSLFDEYFNDDSIETRTIDDVPFKTSTDSKDHCCMLEFSKILCTKNNKQNNEFCKCIETVPQDSCKTCFPQQDQRDTLSILVPHGDKESSDKKIAVGTEWDIPRNESSDSALGDSESEDTGHDMTRQVSSYYGGEQEDWAEEDEIPFPGSKLIEVSAVQPNIANFGRSLLGGYCSSYVPDFVLQGIGSDERFRQCLMSDLSHAVQHPVLDEPIAEAVCIIADMDKWTVQVASSQRRVTDNKLGKEVLVSSLVSNLLHSTLQLYKHNLSPNFCVMHLEDRLQELYFKSKMLSEYLRGQMRVHVKELGVVLGIESSDLPLLAAVASTHSPYVAQILL
With B4, the binding result in experiment [4], in experiment [3] and in experiment [5] was “binds” in each case.
